PubChem BioAssay AID1259308, NCATS, 2017
The deposit covers about 59,000 reagents; shown is an unselected part. Of all reagents, about 1,510 (2.6%) are marked active. 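Calls use total luciferase alone and ignore viability, so some active siRNAs may act by altering cell number.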 Unmarked entries are inactive. Reagents against one gene are numbered here.

Screen: 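Genes whose loss raises luciferase production in HEK293 cells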 (primary screen)
Cell system: human HEK293 embryonic kidney cells stably expressing firefly luciferase (HEK-CMV-Luc2-Hygro)
Knock-down reagent: single siRNA against human genes, 0.8 pmol siRNA per well
Duration: 72 h
Read-out: 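Reporter luminescence and viable-cell signal on separate replicate plates, given as percent of non-targeting control and median/MAD z-scores, plus per-cell luciferase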
Scale: total luciferase, z-score and total luciferase, % of control: higher = more reporter protein produced; luciferase per cell, z-score: higher = more reporter output per viable cell; viable cells, % of control: higher = more viable cells
Rule for the call: 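Active when the median/MAD z-score for overall luciferase is greater than 3; a gene was taken forward for validation with new siRNAs if at least two of its three siRNAs passed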
Calls: active = raised luciferase; inactive = no rise

gene | reagent | total luciferase, z-score | total luciferase, % of control | luciferase per cell, z-score | viable cells, % of control
CNNM1 (GeneID 26507) | 1 | 2.2 | 126 | 1.27 | 101
CNNM1 (GeneID 26507) | 2 | 0.118 | 84.2 | -0.239 | 100
CNNM1 (GeneID 26507) | 3 | 0.496 | 91.7 | 0.638 | 86.7
ELP6 (GeneID 54859) | 1 | 1.39 | 110 | 0.587 | 105
ELP6 (GeneID 54859) | 2 | 2.1 | 124 | 1.18 | 101
ELP6 (GeneID 54859) | 3 | -0.611 | 69.7 | 0.265 | 72.7
LINC01220 (GeneID 731223) | 1 | -0.479 | 72.4 | 0.629 | 68.5
LINC01220 (GeneID 731223) | 2 | -0.474 | 72.5 | 0.548 | 70.1
LINC01220 (GeneID 731223) | 3 | 1.03 | 102 | 1.44 | 78.2
TIMM44 (GeneID 10469) | 1 | -0.909 | 63.8 | 0.575 | 61.3
TIMM44 (GeneID 10469) | 2 | -1.48 | 52.5 | -1.85 | 95.5
TIMM44 (GeneID 10469) | 3 | 0.49 | 91.6 | 1.01 | 78.4

2 entries already listed, ordered by “total luciferase, z-score”, lowest first.
gene | reagent | total luciferase, z-score | total luciferase, % of control | luciferase per cell, z-score | viable cells, % of control
CNNM1 (GeneID 26507) | 2 | 0.118 | 84.2 | -0.239 | 100
CNNM1 (GeneID 26507) | 3 | 0.496 | 91.7 | 0.638 | 86.7

Further results follow:
gene | reagent | total luciferase, z-score | total luciferase, % of control | luciferase per cell, z-score | viable cells, % of control
MTUS2 (GeneID 23281) | 1 | -0.139 | 79.1 | 0.368 | 80.3
MTUS2 (GeneID 23281) | 2 | 0.917 | 100 | 1.11 | 83.5
MTUS2 (GeneID 23281) | 3 | -0.798 | 66 | -0.721 | 89.2
SRCAP-AS1 (GeneID 730183) | 1 | 0.546 | 92.7 | 1.04 | 78.9
SRCAP-AS1 (GeneID 730183) | 2 | 4.08 (active) | 163 | 3.07 | 81.2
SRCAP-AS1 (GeneID 730183) | 3 | 0.047 | 82.8 | 0.289 | 85.8
SCTR (GeneID 6344) | 1 | -0.651 | 68.9 | 0.459 | 68.3
SCTR (GeneID 6344) | 2 | -0.267 | 76.6 | -0.355 | 94
SCTR (GeneID 6344) | 3 | 0.621 | 94.2 | 0.125 | 102
OR9A4 (GeneID 130075) | 1 | 0.6 | 93.8 | 0.124 | 101
OR9A4 (GeneID 130075) | 2 | 0.886 | 99.5 | 0.382 | 101
OR9A4 (GeneID 130075) | 3 | 1.68 | 115 | 1.57 | 85.1
